Data from PubChem BioAssay AID216 (DTP/NCI, 2004).
The list does not hold the whole screen: its compounds were picked by chemical class. Not every dose and run of a compound is shown. T/C is the treated group as % of the vehicle group. For survival time, the PubChem record calls one and a half times the control and up active, and a quarter to a half above the control has no call in these data; cut-offs in other NCI protocols can differ. Some entries show no survivor count and are marked so; the dose need not have been tolerated. Schedules are NCI's codes, read here as Q, the interval in days (D) or hours (H), X, the number of doses. Counts like (3×) give the number of equal values in this list. Some doses were run more than once; their values stand side by side, smallest first. Some schedule codes hold Z or #, which are not explained here.

Tested on: BDF1 mice, P288 leukemia ip, survival T/C
Test: NCI In Vivo Anticancer Drug Screen. Data for tumor model P288 Lymphocytic Leukemia (intraperitoneal) in B6D2F1 (BDF1) mice
Conditions: T/C endpoint: survival time, mean or median, higher T/C = longer survival
Description: The antitumor activity of compounds was measured in mice bearing transplantable tumors. Survival or tumor size were measured and the results are expressed as the measurement made in the treated group (T) divided by the measurement made in the vehicle treated control group (C). The tumor model used in this assay is P288 Lymphocytic Leukemia (intraperitoneal) in B6D2F1 (BDF1) mice

[1] = dose: 2.5 mg/kg/injection, schedule: Q01DX010 (ip), vehicle: saline
[2] = dose: 5.0 mg/kg/injection, schedule: Q01DX010 (ip), vehicle: saline
[3] = dose: 0.5 mg/kg/injection, schedule: Q01DX010 (ip), vehicle: saline
[4] = dose: 1.0 mg/kg/injection, schedule: Q01DX010 (ip), vehicle: saline
[5] = dose: 0.63 mg/kg/injection, schedule: Q01DX010 (ip), vehicle: saline
[6] = dose: 1.25 mg/kg/injection, schedule: Q01DX010 (ip), vehicle: saline

With `ClCCN(CCCl)Cc1nc2ccccc2[nH]1` the T/C (dose: 0.15 mg/kg/injection, schedule: Q01DX Z (ip), vehicle: carboxymethylcellulose (CMC)) was 95 % of control [survivor count not shown], the T/C (dose: 0.3 mg/kg/injection, schedule: Q01DX Z (ip), vehicle: carboxymethylcellulose (CMC)) was 89 % of control [survivor count not shown] and the T/C (dose: 0.6 mg/kg/injection, schedule: Q01DX Z (ip), vehicle: carboxymethylcellulose (CMC)) was 100 % of control [survivor count not shown]. The T/C (dose: 1.2 mg/kg/injection, schedule: Q01DX Z (ip), vehicle: carboxymethylcellulose (CMC)) was 89 % of control [survivor count not shown], the T/C [1] was 95 % of control [survivor count not shown] and the T/C [2] was 95 [survivor count not shown], 113 [survivor count not shown], 115 % of control [survivor count not shown]. For the same compound, the T/C (dose: 10.0 mg/kg/injection, schedule: Q01DX010 (ip), vehicle: saline) was 95 [survivor count not shown], 115 [survivor count not shown], 118 % of control [survivor count not shown].

With `ClCCNCCCl` the T/C (dose: 3.1 mg/kg/injection, schedule: Q01DX Z (ip), vehicle: carboxymethylcellulose (CMC)) was 91 % of control [survivor count not shown], the T/C (dose: 6.25 mg/kg/injection, schedule: Q01DX Z (ip), vehicle: carboxymethylcellulose (CMC)) was 95 % of control [survivor count not shown] and the T/C (dose: 12.5 mg/kg/injection, schedule: Q01DX Z (ip), vehicle: carboxymethylcellulose (CMC)) was 95 % of control [survivor count not shown]. The T/C (dose: 18.8 mg/kg/injection, schedule: Q01DX010 (ip), vehicle: saline) was 90 [survivor count not shown] and 100 % of control [survivor count not shown], the T/C (dose: 25.0 mg/kg/injection, schedule: Q01DX Z (ip), vehicle: carboxymethylcellulose (CMC)) was 91 % of control [survivor count not shown] and the T/C (dose: 37.5 mg/kg/injection, schedule: Q01DX010 (ip), vehicle: saline) was 95 [survivor count not shown] and 110 % of control [survivor count not shown]. The T/C (dose: 50.0 mg/kg/injection, schedule: Q01DX Z (ip), vehicle: carboxymethylcellulose (CMC)) was 93 % of control [survivor count not shown] and the T/C (dose: 75.0 mg/kg/injection, schedule: Q01DX010 (ip), vehicle: saline) was 105 [survivor count not shown] and 120 % of control [survivor count not shown].

With `CC(C(=O)O)N(CCCl)CCCl` (stereo not drawn) the T/C [3] was 100 % of control [survivor count not shown] (2×), the T/C [4] was 105 [survivor count not shown] and 122 % of control [survivor count not shown] and the T/C (dose: 2.0 mg/kg/injection, schedule: Q01DX010 (ip), vehicle: saline) was 100 [survivor count not shown] and 133 % of control [survivor count not shown]. For the same compound, the T/C (dose: 4.0 mg/kg/injection, schedule: Q01DX010 (ip), vehicle: saline) was 116 [survivor count not shown] and 130 % of control [survivor count not shown] and the T/C (dose: 10.0 mg/kg/injection, schedule: Q01DX Z (ip), vehicle: carboxymethylcellulose (CMC)) was 86 % of control [survivor count not shown].

With `NC(Cc1ccccc1N(CCCl)CCCl)C(=O)O` (stereo not drawn) the T/C (dose: 0.06 mg/kg/injection, schedule: Q01DX Z (ip), vehicle: carboxymethylcellulose (CMC)) was 103 % of control [survivor count not shown], the T/C (dose: 0.12 mg/kg/injection, schedule: Q01DX Z (ip), vehicle: carboxymethylcellulose (CMC)) was 126 % of control [survivor count not shown] and the T/C (dose: 0.25 mg/kg/injection, schedule: Q01DX010 (ip), vehicle: saline) was 127 % of control [survivor count not shown]. The T/C (dose: 0.25 mg/kg/injection, schedule: Q01DX Z (ip), vehicle: carboxymethylcellulose (CMC)) was 137 % of control [survivor count not shown], the T/C [3] was 188 % of control [survivor count not shown] and the T/C (dose: 0.5 mg/kg/injection, schedule: Q01DX Z (ip), vehicle: carboxymethylcellulose (CMC)) was 152 % of control [survivor count not shown]. The T/C [4] was 288 % of control [survivor count not shown], the T/C (dose: 1.0 mg/kg/injection, schedule: Q01DX Z (ip), vehicle: carboxymethylcellulose (CMC)) was 173 % of control [survivor count not shown] and the T/C (dose: 2.0 mg/kg/injection, schedule: Q01DX Z (ip), vehicle: carboxymethylcellulose (CMC)) was 168 % of control [survivor count not shown]. The T/C (dose: 4.0 mg/kg/injection, schedule: Q01DX Z (ip), vehicle: carboxymethylcellulose (CMC)) was 88 % of control [survivor count not shown].

`O=C(O)CN(CCCl)CCCl` was tested, and the T/C (dose: 0.5 mg/kg/injection, schedule: Q01DX Z (ip), vehicle: saline) was 93 [survivor count not shown] and 94 % of control [survivor count not shown], the T/C [5] was 105 % of control [survivor count not shown] and the T/C (dose: 1.0 mg/kg/injection, schedule: Q01DX Z (ip), vehicle: saline) was 89 % of control [survivor count not shown]. For the same compound, the T/C [6] was 120 [survivor count not shown] and 133 % of control [survivor count not shown], the T/C [1] was 133 [survivor count not shown] and 135 % of control [survivor count not shown] and the T/C [2] was 133 % of control [survivor count not shown].

`NC(Cc1cccc(N(CCCl)CCCl)c1)C(=O)O` (stereo not drawn) was tested, and the T/C (dose: 0.19 mg/kg/injection, schedule: Q01DX Z (ip), vehicle: carboxymethylcellulose (CMC)) was 113 % of control [survivor count not shown], the T/C (dose: 0.38 mg/kg/injection, schedule: Q01DX Z (ip), vehicle: carboxymethylcellulose (CMC)) was 101 % of control [survivor count not shown] and the T/C [5] was 109 % of control [survivor count not shown]. The T/C (dose: 0.75 mg/kg/injection, schedule: Q01DX Z (ip), vehicle: carboxymethylcellulose (CMC)) was 101 % of control [survivor count not shown], the T/C [6] was 122 [survivor count not shown] and 142 % of control [survivor count not shown] and the T/C (dose: 1.5 mg/kg/injection, schedule: Q01DX Z (ip), vehicle: carboxymethylcellulose (CMC)) was 130 % of control [survivor count not shown]. For the same compound, the T/C [1] was 118 [survivor count not shown] and 123 % of control [survivor count not shown].
